# The whole screen tested about 360,000 compounds, of which about 7,500 (2.1%) were called active. The shares of active, inactive and inconclusive entries below differ from those in the screen. Calls come from the whole dose curve; as a rule, active = well fitted inhibition curve with a large enough effect; inconclusive = small, poorly fitted or top-dose-only effect, or effect the other way; inactive = flat fitted curve, though single readings scatter. Potencies beside an inconclusive call are fits to weak or partial responses and may not hold up.
# Assay: Nrf2 qHTS screen for inhibitors; note: nearly all actives have a fitted effect of over 60% in size
# Conditions: A549 ARE-Fluc reporter, luciferase luminescence, 18-24 h; series mostly up to 46 µM
# Summary of the method: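 A549 ARE_Fluc cells, 5000/well, 5% FBS OPTI-MEM; compounds in dose-response, 18-24 h at 37 °C/5% CO2; CellTiter-Fluor viability read (Ex 405/Em 525), then BugLite luciferase luminescence = Nrf2 activity.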
# Potency is the fitted concentration of half-maximal effect.
row,SMILES,Potency
1,COc1ccc(CCNC(=O)C2CC(c3ccc([N+](=O)[O-])cc3)=NO2)cc1 (stereo not given),"inconclusive: 6.51 µM [activator, partial curve, poor fit]"
2,Cc1cc(C(=O)NC(C)c2ccc3c(c2)OCO3)cs1 (stereo not given),"inconclusive: 14.6 µM [falling, partial curve, poor fit]"
3,O=C(Cc1ccccc1[N+](=O)[O-])c1ccc2c(c1)OCO2,"inconclusive: 14.6 µM [activator, partial curve]"
4,O=C(CN1CCN(c2ncc(C(F)(F)F)cc2Cl)CC1)NCCNc1ncc(C(F)(F)F)cc1Cl,active: 14.6 µM
5,O=C(Nc1ccc(-n2cc(Br)cn2)cc1)c1ccncc1,active: 25.9 µM
6,Nc1ccc2nc(SCc3ccccc3F)sc2c1,"inconclusive: 9.2 µM [activator, partial curve]"
7,CN(C)c1ccc(NS(=O)(=O)c2cc(Cl)ccc2Cl)cc1,"inconclusive: 29.1 µM [falling, single point]"
8,O=S(=O)(CCc1ccncc1)Cc1ccc2c3c(cccc13)CC2,"inconclusive: 23.1 µM [falling, single point]"
9,O=S(=O)(Cc1ccc(Cl)cc1)c1ccccc1-c1nnc(-c2ccc(Cl)cc2)o1,"inconclusive: 16.4 µM [falling, single point]"
10,Cc1cc(C)[n+]2[nH]c(N)c(N=Nc3ccccc3)c2n1,inactive
11,CC1CCN(c2oc(-c3cccc4ccccc34)nc2C#N)CC1,"inconclusive: 1.84 µM [activator, partial curve]"
12,Cc1ccccc1C(=O)Nc1cc(S(=O)(=O)N2CCCCC2)ccc1N1CCN(C)CC1,"inconclusive: 5.8 µM [falling, partial curve, poor fit]"
13,Cc1ccc(NC(=O)C2CCCN(c3ncccn3)C2)c(C)c1 (stereo not given),"inconclusive: 9.2 µM [activator, partial curve]"
14,CCC(C)[C@H](NC(=O)[C@@H]1Cc2c([nH]c3ccccc23)C2c3ccccc3C(=O)N21)C(=O)N1CCC[C@@H]1C(=O)O (stereo not given in full),"inconclusive: 13 µM [activator, partial curve, poor fit]"
15,O=C(Nc1ccc(C(F)(F)F)cc1)c1cc(S(=O)(=O)NCC2COc3ccccc3O2)ccc1F (stereo not given),"inconclusive: 29.1 µM [falling, single point]"
16,CC(C)N(C(=O)CSc1nc2ccccc2n1Cc1ccccc1F)C(C)C,"inconclusive: 29.1 µM [falling, single point]"
17,COc1ccc(Cn2ccc3nc(C)c(C(=O)Nc4ccc(C)c(F)c4)cc3c2=O)cc1,"inconclusive: 1.84 µM [falling, partial curve, poor fit]"
18,CCOc1ccc(Br)cc1CNc1ccc2c(c1)OCCO2,inactive
19,CC1CCN(Cc2c(C(=O)N/N=C/c3ccc(OC(C)C)cc3)nnn2-c2nonc2N)CC1,active: 23.1 µM
20,CCOc1ccc(-c2c(C)nn3c(C)c(C(=O)NCc4ccc(C)o4)cnc23)cc1OCC,"inconclusive: 0.517 µM [falling, partial curve, poor fit]"

# 11 of these compounds, reformatted:
row	SMILES	Potency
7	CN(C)c1ccc(NS(=O)(=O)c2cc(Cl)ccc2Cl)cc1	inconclusive: 29.1 µM [falling, single point]
8	O=S(=O)(CCc1ccncc1)Cc1ccc2c3c(cccc13)CC2	inconclusive: 23.1 µM [falling, single point]
9	O=S(=O)(Cc1ccc(Cl)cc1)c1ccccc1-c1nnc(-c2ccc(Cl)cc2)o1	inconclusive: 16.4 µM [falling, single point]
10	Cc1cc(C)[n+]2[nH]c(N)c(N=Nc3ccccc3)c2n1	inactive
11	CC1CCN(c2oc(-c3cccc4ccccc34)nc2C#N)CC1	inconclusive: 1.84 µM [activator, partial curve]
12	Cc1ccccc1C(=O)Nc1cc(S(=O)(=O)N2CCCCC2)ccc1N1CCN(C)CC1	inconclusive: 5.8 µM [falling, partial curve, poor fit]
13	Cc1ccc(NC(=O)C2CCCN(c3ncccn3)C2)c(C)c1 (stereo not given)	inconclusive: 9.2 µM [activator, partial curve]
14	CCC(C)[C@H](NC(=O)[C@@H]1Cc2c([nH]c3ccccc23)C2c3ccccc3C(=O)N21)C(=O)N1CCC[C@@H]1C(=O)O (stereo not given in full)	inconclusive: 13 µM [activator, partial curve, poor fit]
15	O=C(Nc1ccc(C(F)(F)F)cc1)c1cc(S(=O)(=O)NCC2COc3ccccc3O2)ccc1F (stereo not given)	inconclusive: 29.1 µM [falling, single point]
16	CC(C)N(C(=O)CSc1nc2ccccc2n1Cc1ccccc1F)C(C)C	inconclusive: 29.1 µM [falling, single point]
17	COc1ccc(Cn2ccc3nc(C)c(C(=O)Nc4ccc(C)c(F)c4)cc3c2=O)cc1	inconclusive: 1.84 µM [falling, partial curve, poor fit]

# The results go on.

row,SMILES,Potency
1,c1ccc2c(-c3nc(-c4ccncc4)no3)cccc2c1,"inconclusive: 20.6 µM [activator, partial curve]"
2,COC(=O)Nc1nc2ccc(C(=O)c3cccs3)cc2[nH]1,"inconclusive: 9.2 µM [activator, partial curve]"
3,Cc1cc(NC(=O)CN2C(=O)NC(c3ccccc3)(c3ccc(C)c(C)c3)C2=O)no1 (stereo not given),inactive
4,CCc1ccccc1NC(=O)CSc1nnc(CC)c(CC)n1,"inconclusive: 13 µM [activator, partial curve, poor fit]"
5,CSc1ccc(CNC(=O)c2cc3c(=O)n(Cc4ccco4)ccc3nc2C)cc1,"inconclusive: 29.1 µM [falling, single point]"
6,COc1ccc(CCC(=O)Nc2ccc(Cl)c(S(=O)(=O)N3CCOCC3)c2)cc1OC,active: 18.4 µM
7,Cn1c(Oc2ccc(F)cc2)nc2c1c(=O)n(Cc1ccccc1Cl)c(=O)n2C,"inconclusive: 20.6 µM [falling, single point]"
8,N#Cc1cc(-c2ccccc2)nn1-c1ccccc1,"inconclusive: 13 µM [activator, partial curve, poor fit]"
9,CC(=O)N=C(N)Sc1nc2ccccc2[nH]1,"inconclusive: 3.66 µM [activator, full curve]"
10,COc1cccc(CNc2nc(SC)ncc2CO)c1,"inconclusive: 23.1 µM [falling, partial curve, poor fit]"
11,COc1ccccc1-n1cnnc1SCC(=O)Nc1cc(C)on1,"inconclusive: 23.1 µM [activator, single point]"
12,COc1ccc(NC(=O)Nc2ncn(Cc3cccc(C(F)(F)F)c3)n2)cc1OC,"inconclusive: 20.6 µM [falling, single point]"
13,COc1ccc(OC)c(NC(=O)COc2coc(CN3CCc4ccccc43)cc2=O)c1,"inconclusive: 29.1 µM [falling, single point]"
14,Fc1ccc(-c2nnn(Cc3ccc(F)cc3Cl)n2)cc1,"inconclusive: 7.31 µM [activator, partial curve]"
15,COc1ccc(NC(=O)c2cccc(S(=O)(=O)N(C)c3ccccc3)c2)cn1,"inconclusive: 20.6 µM [falling, single point]"
16,CCOc1ccc(C(C(=O)NC2CCCCC2)N(C(=O)Cc2cccs2)c2ccc(-n3cnnn3)c(OC)c2)cc1 (stereo not given),"inconclusive: 32.6 µM [falling, single point]"
17,O=C(CSc1nc2ncccc2[nH]1)Nc1ccccc1-c1ccccc1,"inconclusive: 29.1 µM [falling, single point]"
18,COCCn1nc2cc(C(=O)NCc3cc(C(F)(F)F)cc(C(F)(F)F)c3)ccc2c1OC,"inconclusive: 3.26 µM [falling, partial curve]"
19,CC(C)C(=O)Nc1cccc(NC(=S)NC(=O)c2ccccc2Cl)c1,"inconclusive: 16.4 µM [falling, single point]"
20,Cc1ccc(NC(=O)CN(C)C(=O)CCOc2ccccc2C)cc1,"inconclusive: 29.1 µM [falling, single point]"
